The list shows a part of the results.
Each target was assayed with COc1ccc(Cn2ccc3cc(C)c(C(=O)NO)cc32)cc1 (assay: dose-dependent thermal stabilisation call (2D-TPP, DLPTP, 10% FDR) (binary (1 = stabilised)); higher = stabilised by the compound). Details: system: HL-60 intact cells; concentration range 0.04-10 µM.
Experimental: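 2D thermal proteome profiling in intact HL-60 cells treated with BRD-3811 (0, 0.04, 0.29, 2, 10 uM) for 90 min at 37 C, then heated 3 min at one of 12 temperatures (42-63.9 C). Soluble protein was quantified by TMT10 MS. The value is the DLPTP call of the paper: dose-dependent thermal stabilisation over all temperatures at 10% FDR (F-test of a dose-response against a flat model); one experiment, one call per tested protein.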

Protein sequences, listed by entry. Tags and fused reporters are not part of them. Lines headed by an entry give the natural chain unless they say otherwise; changes in a name come on top.
UniProt Q9H6K1: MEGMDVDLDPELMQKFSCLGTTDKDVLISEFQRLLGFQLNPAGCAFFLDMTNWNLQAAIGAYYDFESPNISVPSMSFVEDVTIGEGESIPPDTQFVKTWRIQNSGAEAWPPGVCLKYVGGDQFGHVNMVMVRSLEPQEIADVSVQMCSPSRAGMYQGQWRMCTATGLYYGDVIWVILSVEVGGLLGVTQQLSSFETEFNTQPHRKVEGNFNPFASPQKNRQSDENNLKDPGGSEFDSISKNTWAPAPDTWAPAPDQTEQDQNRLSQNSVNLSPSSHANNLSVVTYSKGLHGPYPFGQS
UniProt P78312: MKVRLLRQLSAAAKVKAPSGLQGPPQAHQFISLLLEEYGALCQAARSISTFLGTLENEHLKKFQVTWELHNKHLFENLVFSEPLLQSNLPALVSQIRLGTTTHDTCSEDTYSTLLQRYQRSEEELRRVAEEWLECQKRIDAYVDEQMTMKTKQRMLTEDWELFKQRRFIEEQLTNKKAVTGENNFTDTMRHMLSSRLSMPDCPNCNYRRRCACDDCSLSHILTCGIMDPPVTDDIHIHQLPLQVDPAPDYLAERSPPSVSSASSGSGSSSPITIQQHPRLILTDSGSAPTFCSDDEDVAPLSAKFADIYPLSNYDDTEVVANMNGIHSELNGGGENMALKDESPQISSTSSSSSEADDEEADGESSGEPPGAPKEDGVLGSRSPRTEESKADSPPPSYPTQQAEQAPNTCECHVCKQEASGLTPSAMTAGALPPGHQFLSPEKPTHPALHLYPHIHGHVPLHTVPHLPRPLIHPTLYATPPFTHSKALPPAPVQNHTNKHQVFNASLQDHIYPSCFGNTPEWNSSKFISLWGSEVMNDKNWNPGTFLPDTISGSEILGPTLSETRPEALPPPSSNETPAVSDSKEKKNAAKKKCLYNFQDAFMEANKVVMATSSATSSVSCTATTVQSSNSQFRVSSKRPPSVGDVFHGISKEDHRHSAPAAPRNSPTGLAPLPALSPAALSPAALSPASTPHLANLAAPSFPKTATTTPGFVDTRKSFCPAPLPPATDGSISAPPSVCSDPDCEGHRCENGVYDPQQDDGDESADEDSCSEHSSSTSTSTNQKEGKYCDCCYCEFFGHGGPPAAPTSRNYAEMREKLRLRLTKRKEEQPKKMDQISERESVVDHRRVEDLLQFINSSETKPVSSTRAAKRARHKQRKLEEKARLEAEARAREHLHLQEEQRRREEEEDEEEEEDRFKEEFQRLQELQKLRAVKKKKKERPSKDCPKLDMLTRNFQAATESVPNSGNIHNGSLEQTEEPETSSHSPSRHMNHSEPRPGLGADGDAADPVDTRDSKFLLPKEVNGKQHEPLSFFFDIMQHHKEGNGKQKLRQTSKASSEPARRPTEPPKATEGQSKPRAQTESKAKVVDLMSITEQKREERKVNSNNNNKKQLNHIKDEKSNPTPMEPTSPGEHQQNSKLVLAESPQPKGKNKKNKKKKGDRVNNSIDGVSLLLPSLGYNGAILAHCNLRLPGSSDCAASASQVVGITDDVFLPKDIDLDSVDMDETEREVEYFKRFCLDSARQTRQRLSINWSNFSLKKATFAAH
UniProt Q9P0B6: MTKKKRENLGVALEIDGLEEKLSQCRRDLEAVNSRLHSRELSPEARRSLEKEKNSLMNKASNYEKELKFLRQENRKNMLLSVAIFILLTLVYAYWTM
UniProt Q8IWP9: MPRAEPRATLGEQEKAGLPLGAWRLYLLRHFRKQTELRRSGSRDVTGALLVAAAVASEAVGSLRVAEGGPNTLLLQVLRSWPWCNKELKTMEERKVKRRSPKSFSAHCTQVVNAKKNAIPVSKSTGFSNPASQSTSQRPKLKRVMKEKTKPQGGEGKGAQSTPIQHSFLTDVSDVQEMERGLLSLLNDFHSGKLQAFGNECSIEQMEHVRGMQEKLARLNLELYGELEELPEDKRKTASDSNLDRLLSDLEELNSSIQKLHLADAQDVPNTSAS
UniProt Q9NPF0: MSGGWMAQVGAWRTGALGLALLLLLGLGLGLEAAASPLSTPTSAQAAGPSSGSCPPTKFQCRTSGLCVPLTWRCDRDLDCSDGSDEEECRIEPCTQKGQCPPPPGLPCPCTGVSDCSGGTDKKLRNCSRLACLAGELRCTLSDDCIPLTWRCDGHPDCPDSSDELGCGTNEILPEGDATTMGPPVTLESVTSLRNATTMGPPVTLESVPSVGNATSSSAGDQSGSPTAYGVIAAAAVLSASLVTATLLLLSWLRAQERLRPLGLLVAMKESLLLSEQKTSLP
UniProt Q9H6E4: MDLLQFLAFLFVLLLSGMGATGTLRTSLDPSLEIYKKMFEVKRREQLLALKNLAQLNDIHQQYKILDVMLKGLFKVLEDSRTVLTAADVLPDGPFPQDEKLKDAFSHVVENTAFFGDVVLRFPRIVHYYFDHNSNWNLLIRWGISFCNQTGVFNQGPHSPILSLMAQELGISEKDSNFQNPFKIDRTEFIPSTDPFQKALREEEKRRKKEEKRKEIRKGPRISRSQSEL
UniProt Q96A33: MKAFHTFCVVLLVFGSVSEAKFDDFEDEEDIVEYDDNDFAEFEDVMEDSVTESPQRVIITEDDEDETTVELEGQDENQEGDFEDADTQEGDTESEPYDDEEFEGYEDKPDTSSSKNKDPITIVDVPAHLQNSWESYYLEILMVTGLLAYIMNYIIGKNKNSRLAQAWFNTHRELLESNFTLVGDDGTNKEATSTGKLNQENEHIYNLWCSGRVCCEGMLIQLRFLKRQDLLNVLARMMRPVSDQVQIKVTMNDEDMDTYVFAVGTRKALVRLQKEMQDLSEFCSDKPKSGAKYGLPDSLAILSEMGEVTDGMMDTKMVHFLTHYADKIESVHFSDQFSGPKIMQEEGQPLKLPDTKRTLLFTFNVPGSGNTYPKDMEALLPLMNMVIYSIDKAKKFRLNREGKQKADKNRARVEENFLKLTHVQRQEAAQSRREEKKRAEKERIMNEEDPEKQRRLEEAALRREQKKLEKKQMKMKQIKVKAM
UniProt Q8ND76: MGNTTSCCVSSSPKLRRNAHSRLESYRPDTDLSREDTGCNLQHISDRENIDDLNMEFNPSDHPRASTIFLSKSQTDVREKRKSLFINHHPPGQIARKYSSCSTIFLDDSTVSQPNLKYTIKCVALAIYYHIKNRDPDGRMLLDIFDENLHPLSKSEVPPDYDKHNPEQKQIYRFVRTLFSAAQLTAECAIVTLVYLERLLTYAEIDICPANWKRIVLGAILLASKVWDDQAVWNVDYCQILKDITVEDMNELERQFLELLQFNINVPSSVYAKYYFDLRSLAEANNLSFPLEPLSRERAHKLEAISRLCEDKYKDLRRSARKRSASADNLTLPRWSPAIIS
UniProt Q9NPL8: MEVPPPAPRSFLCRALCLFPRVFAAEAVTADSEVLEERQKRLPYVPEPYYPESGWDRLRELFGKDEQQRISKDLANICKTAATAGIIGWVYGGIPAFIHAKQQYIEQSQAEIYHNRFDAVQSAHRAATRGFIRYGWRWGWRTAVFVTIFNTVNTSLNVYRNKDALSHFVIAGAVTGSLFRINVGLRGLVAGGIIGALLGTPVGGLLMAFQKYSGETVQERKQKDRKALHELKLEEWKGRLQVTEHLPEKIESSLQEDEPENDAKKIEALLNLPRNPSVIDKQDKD
UniProt P35219: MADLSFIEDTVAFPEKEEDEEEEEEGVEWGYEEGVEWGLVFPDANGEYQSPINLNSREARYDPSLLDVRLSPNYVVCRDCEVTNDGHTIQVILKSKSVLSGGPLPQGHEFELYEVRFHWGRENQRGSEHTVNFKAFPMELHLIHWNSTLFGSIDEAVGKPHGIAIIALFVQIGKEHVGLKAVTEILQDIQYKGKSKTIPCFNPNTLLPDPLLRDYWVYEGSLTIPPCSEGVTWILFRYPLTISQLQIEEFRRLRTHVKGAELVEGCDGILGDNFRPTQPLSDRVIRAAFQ
UniProt Q9NXE8: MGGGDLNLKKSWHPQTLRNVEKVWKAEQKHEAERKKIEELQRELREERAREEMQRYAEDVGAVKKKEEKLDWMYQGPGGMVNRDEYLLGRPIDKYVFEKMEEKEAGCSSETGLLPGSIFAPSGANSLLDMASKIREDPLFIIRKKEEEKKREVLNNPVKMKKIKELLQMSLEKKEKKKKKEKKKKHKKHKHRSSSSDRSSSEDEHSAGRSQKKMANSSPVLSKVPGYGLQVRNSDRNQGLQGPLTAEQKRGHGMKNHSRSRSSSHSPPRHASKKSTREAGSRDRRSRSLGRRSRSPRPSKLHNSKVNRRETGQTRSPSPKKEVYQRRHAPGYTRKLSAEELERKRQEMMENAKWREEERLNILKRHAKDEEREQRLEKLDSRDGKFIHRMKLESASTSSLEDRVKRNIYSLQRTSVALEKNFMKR
UniProt Q68CQ4: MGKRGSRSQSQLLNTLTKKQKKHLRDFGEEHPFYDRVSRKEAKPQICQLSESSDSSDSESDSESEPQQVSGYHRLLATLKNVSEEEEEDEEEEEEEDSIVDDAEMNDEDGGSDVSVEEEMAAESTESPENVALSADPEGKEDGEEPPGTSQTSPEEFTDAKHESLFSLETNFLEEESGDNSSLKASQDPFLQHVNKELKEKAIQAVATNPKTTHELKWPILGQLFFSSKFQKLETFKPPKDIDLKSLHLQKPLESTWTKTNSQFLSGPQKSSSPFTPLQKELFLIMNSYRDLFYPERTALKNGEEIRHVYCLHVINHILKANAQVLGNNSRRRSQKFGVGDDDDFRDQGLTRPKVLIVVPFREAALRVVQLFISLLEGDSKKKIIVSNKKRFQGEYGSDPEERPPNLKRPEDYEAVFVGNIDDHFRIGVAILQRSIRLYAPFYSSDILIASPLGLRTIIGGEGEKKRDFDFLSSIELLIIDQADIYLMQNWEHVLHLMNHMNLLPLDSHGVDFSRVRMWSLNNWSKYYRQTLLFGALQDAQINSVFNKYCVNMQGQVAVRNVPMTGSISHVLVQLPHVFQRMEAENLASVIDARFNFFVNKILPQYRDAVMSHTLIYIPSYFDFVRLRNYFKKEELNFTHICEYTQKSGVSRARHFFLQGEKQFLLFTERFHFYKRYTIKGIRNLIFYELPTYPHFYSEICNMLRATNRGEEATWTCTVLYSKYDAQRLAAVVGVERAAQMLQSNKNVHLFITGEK
UniProt Q5T440: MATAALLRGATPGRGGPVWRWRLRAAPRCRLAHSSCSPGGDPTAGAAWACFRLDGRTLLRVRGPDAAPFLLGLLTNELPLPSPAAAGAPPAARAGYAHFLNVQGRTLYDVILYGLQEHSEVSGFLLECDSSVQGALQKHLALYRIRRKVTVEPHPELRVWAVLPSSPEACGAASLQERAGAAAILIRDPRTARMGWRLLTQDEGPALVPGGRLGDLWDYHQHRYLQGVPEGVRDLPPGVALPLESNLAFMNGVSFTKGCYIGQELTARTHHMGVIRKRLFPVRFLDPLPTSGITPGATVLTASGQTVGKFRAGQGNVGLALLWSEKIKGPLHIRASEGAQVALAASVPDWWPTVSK
UniProt Q9NX38: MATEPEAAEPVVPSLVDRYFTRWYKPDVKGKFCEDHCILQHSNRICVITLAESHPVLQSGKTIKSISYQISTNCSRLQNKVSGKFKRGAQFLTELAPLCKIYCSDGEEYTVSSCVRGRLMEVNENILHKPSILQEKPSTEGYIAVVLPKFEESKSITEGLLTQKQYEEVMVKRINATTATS
UniProt Q9H8G2: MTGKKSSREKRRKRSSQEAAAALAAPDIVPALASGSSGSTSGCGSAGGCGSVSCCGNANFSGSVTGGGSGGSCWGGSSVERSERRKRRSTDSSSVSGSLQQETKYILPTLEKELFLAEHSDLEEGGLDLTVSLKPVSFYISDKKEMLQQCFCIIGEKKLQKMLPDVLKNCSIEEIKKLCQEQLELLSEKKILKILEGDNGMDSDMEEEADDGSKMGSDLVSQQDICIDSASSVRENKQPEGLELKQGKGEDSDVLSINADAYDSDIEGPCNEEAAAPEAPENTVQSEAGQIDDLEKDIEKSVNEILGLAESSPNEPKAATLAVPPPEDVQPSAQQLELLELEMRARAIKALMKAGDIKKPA
UniProt Q9BWL3: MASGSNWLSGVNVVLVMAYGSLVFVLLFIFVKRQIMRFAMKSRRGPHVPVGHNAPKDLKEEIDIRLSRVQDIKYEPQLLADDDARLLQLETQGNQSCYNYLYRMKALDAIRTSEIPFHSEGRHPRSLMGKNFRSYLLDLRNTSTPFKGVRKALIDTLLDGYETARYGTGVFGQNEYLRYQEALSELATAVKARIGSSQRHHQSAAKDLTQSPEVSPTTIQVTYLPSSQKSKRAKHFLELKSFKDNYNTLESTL
UniProt P49662: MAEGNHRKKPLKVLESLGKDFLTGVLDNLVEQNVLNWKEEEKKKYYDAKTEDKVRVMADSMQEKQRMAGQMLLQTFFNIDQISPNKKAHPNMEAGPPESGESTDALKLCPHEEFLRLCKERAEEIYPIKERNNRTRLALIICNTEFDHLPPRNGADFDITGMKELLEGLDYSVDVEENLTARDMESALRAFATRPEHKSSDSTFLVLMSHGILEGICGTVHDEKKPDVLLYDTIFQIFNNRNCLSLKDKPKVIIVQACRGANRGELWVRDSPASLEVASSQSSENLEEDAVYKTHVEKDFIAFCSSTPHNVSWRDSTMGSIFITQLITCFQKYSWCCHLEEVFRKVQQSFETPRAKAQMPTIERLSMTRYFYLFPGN

Target	dose-dependent thermal stabilisation call
C6ORF106 (UniProt Q9H6K1)	inactive: 0
C20ORF142 (UniProt Q8N6M3)	inactive: 0
C4ORF8 (UniProt P78312)	inactive: 0
C1ORF131 (UniProt Q8NDD1)	inactive: 0
C6ORF129 (UniProt Q9P0B6)	inactive: 0
CCDC28A (UniProt Q8IWP9)	inactive: 0
CCNDBP1 (UniProt O95273)	inactive: 0
CD320 (UniProt Q9NPF0)	inactive: 0
C2ORF56 (UniProt Q7L592)	inactive: 0
CCDC134 (UniProt Q9H6E4)	inactive: 0
C8ORF83 (UniProt Q629K1)	inactive: 0
C9ORF5 (UniProt Q9H330)	inactive: 0
C1QBP (UniProt Q07021)	inactive: 0
CCDC47 (UniProt Q96A33)	inactive: 0
CBLL1 (UniProt Q75N03)	inactive: 0
CC2D1B (UniProt Q5T0F9)	inactive: 0
CCS (UniProt O14618)	inactive: 0
CCNY (UniProt Q8ND76)	inactive: 0

Target	dose-dependent thermal stabilisation call
C1ORF25 (UniProt Q7Z2T5)	inactive: 0
C22ORF30 (UniProt Q5THK1)	inactive: 0
CCDC127 (UniProt Q96BQ5)	inactive: 0
C3ORF1 (UniProt Q9NPL8)	inactive: 0
CCDC93 (UniProt Q567U6)	inactive: 0
CA8 (UniProt P35219)	inactive: 0
CCDC49 (UniProt Q9NXE8)	inactive: 0
C1ORF107 (UniProt Q68CQ4)	inactive: 0
CASP7 (UniProt P55210)	inactive: 0
C1ORF69 (UniProt Q5T440)	inactive: 0
CCDC76 (UniProt Q9NUP7)	inactive: 0
C9ORF6 (UniProt Q9NX38)	inactive: 0
CASP3 (UniProt P42574)	inactive: 0
C9ORF82 (UniProt Q9H8G2)	inactive: 0
CAPN7 (UniProt Q9Y6W3)	inactive: 0
C1ORF43 (UniProt Q9BWL3)	inactive: 0
CCNH (UniProt P51946)	inactive: 0
CASP4 (UniProt P49662)	inactive: 0

Retrieved one by one from above:
Target	dose-dependent thermal stabilisation call
C6ORF129 (UniProt Q9P0B6)	inactive: 0
C22ORF30 (UniProt Q5THK1)	inactive: 0
